Numbering of substitutions follows the chain as printed. Construct, isoform or probe ends are uncertain for at least one entry. For part of these data: A negative result means that nothing was seen under these conditions. Tags and fusion partners may be left off the protein sequences shown.
Key:
[1] = target: T1, Vfr (Pseudomonas protegens FD6) (UniProt A0A2C9EUP7); assay: EMSA; settings: 0.5-2 ug Vfr, competed by unlabeled probe; Beyotime chemiluminescent EMSA kit buffer (composition not given), 10 uL, 0.5-4 ug Vfr, 0.02 uM probe (legends; Methods say 1 umol), 25 C 20 min; recombinant protein; protein details: C-terminal His6; label: biotin; probe letters rebuilt from the primers and the genome
T1 sequence (looked up, limits assumed): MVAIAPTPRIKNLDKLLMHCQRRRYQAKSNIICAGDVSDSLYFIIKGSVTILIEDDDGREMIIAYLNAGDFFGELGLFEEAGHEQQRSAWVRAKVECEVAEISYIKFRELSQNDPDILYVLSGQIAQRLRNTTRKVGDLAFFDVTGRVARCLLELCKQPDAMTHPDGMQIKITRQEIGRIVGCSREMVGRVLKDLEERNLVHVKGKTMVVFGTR

[2] = target: T2, Vfr (Pseudomonas protegens FD6) (UniProt A0A2C9EUP7); assay: competition with a labelled probe; settings: 25 C 20 min, recombinant protein, protein details: C-terminal His6
T2 sequence (looked up, limits assumed): T1 sequence (looked up, limits assumed) with R9K, I105A

[3] = target: T2, Vfr (Pseudomonas protegens FD6); assay: EMSA; settings: Beyotime chemiluminescent EMSA kit buffer (composition not given), 10 uL, 0.5-4 ug Vfr, 0.02 uM probe (legends; Methods say 1 umol), 25 C 20 min; recombinant protein; protein details: C-terminal His6; label: biotin (unlabeled as competitor)

## AAAACTGCCGTCAAACTCGGCGATGACGTTCTGATTGCCGATCAGCAGGGCGGCGGCGCCGGCTCCAGCATAGGACTCGGTCAGGTCGCCCGGCGCGGTGTTGCGGTTGATGGTGTCGGCGCCGATGGCCAGGGCGCTGCCGGTCATGCCGGAGGCCACCAGGGCCTGGCAGATCTGCAGGGCGGAGGTGCCGGACTTGCCGGCAAACTGCACGTCGGCGCAATAGGCGTCGTAACCGCTG (double strand) [phlF upstream fragment, 241 bp]
[1]
  binding result: binds

## CAGCGGTATTTACGCCTATTGCGCC (double strand) [phlF-mut 25 bp (TTACG to TATTT)]
[2]; 200-fold unlabeled vs 0.02 uM labeled phlF probe, Beyotime chemiluminescent EMSA kit buffer (composition not given), 10 uL, 0.5-4 ug Vfr, 0.02 uM probe …; Methods say 1 umol), label: none (competitor)
  binding result: no binding

## CAGCGGTTACGACGCCTATTGCGCC (double strand) [phlF' 25-bp probe]
[2]; 200-fold unlabeled vs 0.02 uM labeled phlF probe, Beyotime chemiluminescent EMSA kit buffer (composition not given), 10 uL, 0.5-4 ug Vfr, 0.02 uM probe …; Methods say 1 umol), label: biotin (unlabeled as competitor)
  binding result: binds
[3]
  binding result: binds

## CAGGCCGGGCAGTACGTTGCGCGCCAGCGGCTGATGGGCGATCAGCAGGAACAGGCAGGGCGCGAACACACTGACGGCACTGCGCAACGTGGCCGGATCTTCCGGCGACAGGTGCATGATTTGGCCGAGAATGGTGCGCACGATCTTCGCCTTGGGGAACGCCTGCTCCTCCAGGACCGCCGGCAGCACCGACGAAGGCGACAGCAGCTCGCGGGTCAGCACTTTCAGTGCCCAGCCCTC (double strand) [phlG upstream fragment, 240 bp]
[1]
  binding result: binds

## GAGGACGTTGAACGCTGGCTAAGCGCCAGTCATTTGGCGTCAGCTTAACAGACACATCCTTGACGGATTTAAGATTTTTCTTGGTGAAGATCGGTAATCTGCTGTGAACATGCAAAGCGCAGCCCGGGCAAAACCCTGTGCTAAGCTGGCGACCCTTTTTTTACAGTGGAGTCTTGGCGATGAAGG (double strand) [vfr upstream fragment, 186 bp]
[1]
  binding result: binds

## GGAACAGGCAGGGCGCGAACACACT (double strand) [phlG' 25-bp probe]
[2]; 200-fold unlabeled vs 0.02 uM labeled phlG probe, Beyotime chemiluminescent EMSA kit buffer (composition not given), 10 uL, 0.5-4 ug Vfr, 0.02 uM probe …; Methods say 1 umol), label: biotin (unlabeled as competitor)
  binding result: binds
[3]
  binding result: binds

## GGAACAGGCAGGGCGCGAATTTTCT (double strand) [phlG-mut 25 bp (ACACA to ATTTT)]
[2]; 200-fold unlabeled vs 0.02 uM labeled phlG probe, Beyotime chemiluminescent EMSA kit buffer (composition not given), 10 uL, 0.5-4 ug Vfr, 0.02 uM probe …; Methods say 1 umol), label: none (competitor)
  binding result: no binding

## GGGCTGCGCTTTGCATGTTCACAGC (double strand) [vfr' 25-bp probe]
[2]; 200-fold unlabeled vs 0.02 uM labeled vfr probe, Beyotime chemiluminescent EMSA kit buffer (composition not given), 10 uL, 0.5-4 ug Vfr, 0.02 uM probe (legends; Methods say 1 umol), label: biotin (unlabeled as competitor)
  binding result: binds
[3]
  binding result: binds

## GGGCTGCGCTTTGCATGTTTTTTGC (double strand) [vfr-mut 25 bp (TCACA to TTTTT)]
[2]; 200-fold unlabeled vs 0.02 uM labeled vfr probe, Beyotime chemiluminescent EMSA kit buffer (composition not given), 10 uL, 0.5-4 ug Vfr, 0.02 uM probe (legends; Methods say 1 umol), label: none (competitor)
  binding result: no binding
